Data as given in patent publication US20220331423A1 (WISTAR INSTITUTE OF ANATOMY AND BIOLOGY, published 2022).
No constants are given. Whether binding was seen depends on the method and setting. Some binding calls cover weakened binding; strength is not graded here.

Sequences of proteins named here, by UniProt entry; tags and fusion partners are left off. Residues count along the entry.
UniProt Q92956, residues 39-200: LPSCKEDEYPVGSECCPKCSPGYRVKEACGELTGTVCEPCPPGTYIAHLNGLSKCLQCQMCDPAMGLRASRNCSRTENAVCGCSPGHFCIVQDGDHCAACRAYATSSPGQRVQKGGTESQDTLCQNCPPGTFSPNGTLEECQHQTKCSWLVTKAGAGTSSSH

Molecular target: purified human HVEM (herpes virus entry mediator), coated on ELISA plates (human) (UniProt Q92956)
Test: ELISA: gD-normalized extracts of AdC68gD-infected CHO-CAR cells on plates coated with purified HVEM

Substance: HSV-1 glycoprotein D (gD), non-fused, expressed from AdC68gD (from UniProt Q05059 26-394) (ligand)
- binding: binds
